# Some results were stated once for a whole list of compounds, not compound by compound. At least one compound was matched to its structure with a doubt left.
# Chains of the proteins cited; added tags and fusions are not shown. Lines headed by an entry give the natural chain unless they say otherwise; changes in a name come on top.
# UniProt P49841: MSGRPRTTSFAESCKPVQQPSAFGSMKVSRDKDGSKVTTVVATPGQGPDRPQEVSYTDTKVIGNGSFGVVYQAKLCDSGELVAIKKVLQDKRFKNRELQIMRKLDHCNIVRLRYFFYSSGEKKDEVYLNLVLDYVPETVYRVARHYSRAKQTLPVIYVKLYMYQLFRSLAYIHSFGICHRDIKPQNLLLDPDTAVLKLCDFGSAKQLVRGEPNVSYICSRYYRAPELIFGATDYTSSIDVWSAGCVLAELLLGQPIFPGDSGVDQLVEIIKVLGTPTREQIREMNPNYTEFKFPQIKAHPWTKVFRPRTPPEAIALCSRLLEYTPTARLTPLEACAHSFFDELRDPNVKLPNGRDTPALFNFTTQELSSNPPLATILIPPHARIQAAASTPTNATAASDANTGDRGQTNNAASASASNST
# Target: recombinant human GSK-3β (Homo sapiens, UniProt P49841)
# Assay: Measurement of GSK-3 enzyme activity inhibition (32P phosphorylation of phospho-glycogen synthase peptide-2)
# Type: biochemical
# Conditions: 20 μM ATP, 20 minutes at room temperature, read-out: GSK-3 enzyme inhibiting activity (IC50)
# Procedure: Measurement of GSK-3 Enzyme Activity Inhibition
# After adding 25 μL of phospho-glycogen synthase peptide-2 substrate solution [6 μM phospho -glycogen synthase peptide-2, 20 μM ATP, 16 mM MOPS buffer (pH 7.0), 0.2 mM EDTA, 20 mM magnesium acetate, 0.1 μCi [γ-^32P]ATP (specific activity: approximately 110 TBq/mmol)]to 5 μL of the test compound using 5% dimethylsulfoxide as the solvent, reaction was initiated by further addition of 20 μL of a GSK-3β enzyme solution [10 mU recombinant human GSK-3β, 20 mM MOPS buffer (pH 7.0), 1 mM EDTA, 0.1% polyoxyethylene lauryl ether (23 Lauryl Ether; Brij 35), 5% glycerol, 0.1% β-mercaptoethanol]. After conducting the reaction for 20 minutes at room temperature, an equivalent volume of a 200 mM phosphoric acid solution was added to quench the reaction, and 90 μL of the reaction product was adsorbed onto a MultiScreen PH plate (Millipore) and rinsed with a 100 mM phosphoric acid solution. After drying the plate, 30 μL of Micro Scint-O (Packard BioScience) was added, and the cpm was measured with a scintillation counter to determine the inhibiting activity. Phospho GS Peptide2 is […]P)-Glu-Asp-Glu-Glu-Glu (SEQ ID NO:1).
row,SMILES,IC50 [nM]
1,Cc1ccoc1-c1c(C#N)c2nc[nH]c(=S)c2n1CCNC(=O)c1ccc(C#N)cc1 [2-1825],< 10
2,Cc1ccoc1-c1c(C#N)c2nc[nH]c(=S)c2n1CCC(=O)NCc1cccnc1 [3-1777],< 10
3,CN(C)CC(=O)NCCn1c(-c2ccccc2)c(C#N)c2nc[nH]c(=S)c21 [2-1840],1000 to 10000
4,N#Cc1c(-c2ccccc2)n(CCNC(=O)C(c2ccccc2)c2ccccc2)c2c(=S)[nH]cnc12 [2-1861],1000 to 10000
5,N#Cc1c(-c2ccccc2Cl)n(Cc2ccccc2)c2c(=S)[nH]cnc12 [1-0667],1000 to 10000
6,CC(C)Cc1c(C#N)c2nc[nH]c(=O)c2n1CCCc1ccccc1 [1-0315],1000 to 10000
7,COc1cc(-c2c(C#N)c3nc[nH]c(=S)c3n2CCNC(=O)c2ccccc2)cc(OC)c1OC [2-1924],1000 to 10000
8,N#Cc1c(-c2ccccc2)n(CCCC(=O)C2CCCCC2)c2c(=S)[nH]cnc12 [5-0051],1000 to 10000
9,N#Cc1c(-c2ccccc2)n(CCCc2nc(-c3ccc(F)cc3)no2)c2c(=S)[nH]cnc12 [1-0587],1000 to 10000
10,Cc1c(C#N)c2nc[nH]c(=S)c2n1CCCOC(C)C [1-0254],1000 to 10000
11,CNC(=O)CNC(=O)CCn1c(-c2ccccc2)c(C#N)c2nc[nH]c(=S)c21 [3-0021],1000 to 10000
12,Cn1c(Cc2ccccc2)c(C#N)c2nc[nH]c(=S)c21 [1-0099],1000 to 10000
13,N#Cc1c(-c2ccc(OC(F)(F)F)cc2)[nH]c2c(=S)[nH]cnc12 [1-0695],1000 to 10000
14,CC1CC(C)CN(c2c(C#N)c3nc[nH]c(=S)c3n2CCCOC(C)C)C1 (stereo not shown) [6-0337],1000 to 10000
15,COC(=O)c1ccc(CNCCCn2c(-c3ccccc3)c(C#N)c3nc[nH]c(=S)c32)cc1 [2-1771],1000 to 10000
16,CSc1ccc(NC(=O)CCCn2c(-c3ccccc3)c(C#N)c3nc[nH]c(=S)c32)cc1 [3-0727],1000 to 10000
17,N#Cc1c(-c2sccc2Cl)n(CCNC(=O)c2ccccc2N)c2c(=S)[nH]cnc12 [2-0617],< 10
18,N#Cc1c(-c2ccccc2)n(Cc2ccccc2)c2c(=S)[nH]cnc12 [1-0308],1000 to 10000
19,N#Cc1c(-c2ccccc2)n(CCCC(=O)c2ccccc2)c2c(=S)[nH]cnc12 [5-0054],1000 to 10000
20,N#Cc1c(-c2cccc(C(=O)O)c2)[nH]c2c(=O)[nH]cnc12 [1-0054],1000 to 10000
21,CNc1ccccc1C(=O)N(C)CCn1c(-c2ccccc2)c(C#N)c2nc[nH]c(=S)c21 [2-1858],1000 to 10000
22,N#Cc1c(-c2ccccc2)n(CCCN2CCOCC2)c2c(=S)[nH]cnc12 [1-0759],1000 to 10000

row,SMILES,IC50 [nM]
1,Cc1ccsc1-c1c(C#N)c2nc[nH]c(=S)c2n1CCNC(=O)c1ccc[nH]1 [2-1463],< 10
2,CC(C)OCCCn1c(CCc2ccccc2)c(C#N)c2nc[nH]c(=O)c21 [1-0245],1000 to 10000
3,N#Cc1c(-c2cc3ccccc3o2)[nH]c2c(=O)[nH]cnc12 [1-0091],1000 to 10000
4,CCOC(=O)C1CCCCN1C(=O)CCCn1c(-c2ccccc2)c(C#N)c2nc[nH]c(=S)c21 (stereo not shown) [3-0634],1000 to 10000
5,N#Cc1c(-c2ccccc2)n(CCCC(=O)N2CCN(CCN3CCCC3)CC2)c2c(=S)[nH]cnc12 [3-0687],1000 to 10000
6,CCN(CC)CCNC(=O)CCn1c(-c2ccccc2)c(C#N)c2nc[nH]c(=S)c21 [3-0036],1000 to 10000
7,CC(C)OCCCn1c(N2CCNCC2)c(C#N)c2nc[nH]c(=S)c21 [6-0349],1000 to 10000
8,CCOC(=O)c1cccc(NC(=O)CCn2c(-c3ccccc3)c(C#N)c3nc[nH]c(=S)c32)c1 [3-1823],1000 to 10000
9,N#Cc1c(-c2cccc3c2oc2ccccc23)[nH]c2c(=O)[nH]cnc12 [1-0082],1000 to 10000
10,COC(=O)c1ccc(CNCCn2c(-c3ccccc3)c(C#N)c3nc[nH]c(=S)c32)cc1 [2-1931],1000 to 10000
11,N#Cc1c(-c2sccc2Cl)n(CCNC(=O)c2cccs2)c2c(=S)[nH]cnc12 [2-1380],< 10
12,N#Cc1c(-c2ccc(C(=O)O)cc2)[nH]c2c(=O)[nH]cnc12 [1-0055],1000 to 10000
13,COCCCn1c(CC(C)C)c(C#N)c2nc[nH]c(=O)c21 [1-0225],1000 to 10000
14,CSc1ccc(-c2[nH]c3c(=O)[nH]cnc3c2C#N)cc1 [1-0076],1000 to 10000
15,CC(C)Cc1c(C#N)c2nc[nH]c(=S)c2n1CCCOC(C)C [1-0239],1000 to 10000
16,Cc1noc(C)c1C(=O)OCCCn1c(-c2ccccc2)c(C#N)c2nc[nH]c(=O)c21 [2-0539],1000 to 10000
17,N#Cc1c(-c2ccccc2)n(CCNCc2ccc([N+](=O)[O-])cc2)c2c(=S)[nH]cnc12 [2-1932],1000 to 10000
18,N#Cc1c(-c2ccccc2)n(CCCNC(=O)c2ccccc2)c2c(=O)[nH]cnc12 [2-0060],1000 to 10000
19,CCOCCCn1c(C)c(C#N)c2nc[nH]c(=S)c21 [1-0237],1000 to 10000
20,COc1ccc(N(C)C(=O)CCn2c(-c3ccccc3)c(C#N)c3nc[nH]c(=S)c32)cc1 [3-0100],1000 to 10000
21,N#Cc1c(-c2sccc2Cl)n(CCNC(=O)c2ccc(O)cc2O)c2c(=S)[nH]cnc12 [2-1928],< 10
22,N#Cc1c(-c2sccc2Cl)n(CCNC(=O)c2ccc[nH]2)c2c(=S)[nH]cnc12 [2-1464],< 10

row,SMILES,IC50 [nM]
1,CC(C)OCCCn1c(N2CCCNCC2)c(C#N)c2nc[nH]c(=S)c21 [6-0382],1000 to 10000
2,N#Cc1c(-c2ccccc2)n(CCc2nc(-c3ccc(F)cc3)no2)c2c(=S)[nH]cnc12 [1-0497],1000 to 10000
3,COc1ccc(CNCCn2c(-c3ccccc3)c(C#N)c3nc[nH]c(=S)c32)cc1 [2-1933],1000 to 10000
4,N#Cc1c(-c2ccc(Oc3ccccc3)cc2)[nH]c2c(=S)[nH]cnc12 [1-0079],1000 to 10000
5,CS(=O)(=O)c1ccc(CNCCCn2c(-c3ccccc3)c(C#N)c3nc[nH]c(=S)c32)cc1 [2-1774],1000 to 10000
6,N#Cc1c(-c2ccccc2)n(CCc2cccs2)c2c(=S)[nH]cnc12 [1-0416],1000 to 10000
7,CCOC(=O)C1CCN(C(=O)CCn2c(-c3ccco3)c(C#N)c3nc[nH]c(=S)c32)CC1 [3-0207],< 10
8,COc1cccc(OC)c1C(=O)NCCn1c(-c2ccccc2)c(C#N)c2nc[nH]c(=S)c21 [2-1059],1000 to 10000
9,N#Cc1c(-c2ccccc2)n(CCCC(=O)Nc2cccc([N+](=O)[O-])c2)c2c(=S)[nH]cnc12 [3-0561],1000 to 10000
10,N#Cc1c(-c2ccccc2)n(CCCOCCc2ccccc2)c2c(=S)[nH]cnc12 [1-0555],1000 to 10000
11,N#Cc1c(-c2ccsc2)[nH]c2c(=O)[nH]cnc12 [1-0088],1000 to 10000
12,COC(=O)c1ccc(C(=O)NCCn2c(-c3cccn3C)c(C#N)c3nc[nH]c(=S)c32)cc1 [2-0888],< 10
13,N#Cc1c(-c2ccccc2)n(CCCCc2ccccc2)c2c(=O)[nH]cnc12 [1-0326],1000 to 10000
14,Cc1ccsc1-c1c(C#N)c2nc[nH]c(=S)c2n1CCNC(=O)c1ccccc1N [2-0616],< 10
15,CC(C)OCCCn1c(N2CCN(c3ccncc3)CC2)c(C#N)c2nc[nH]c(=S)c21 [6-0345],1000 to 10000
16,COC(=O)c1ccc(C(=O)NCCCn2c(-c3ccccc3)c(C#N)c3nc[nH]c(=S)c32)cc1 [2-1769],1000 to 10000
17,N#Cc1c(-c2ccccc2)n(CCCOC(=O)c2cccnc2)c2c(=O)[nH]cnc12 [2-0536],1000 to 10000
18,Cc1cc(C)cc(-c2[nH]c3c(=S)[nH]cnc3c2C#N)c1 [1-0673],1000 to 10000
19,CC(=O)Nc1ccc(C(=O)NCCn2c(-c3sccc3Cl)c(C#N)c3nc[nH]c(=S)c32)cc1 [2-1079],< 10
20,COC(=O)c1ccc(C(=O)NCCn2c(-c3sccc3Cl)c(C#N)c3nc[nH]c(=S)c32)cc1 [2-0887],< 10

# Reference: patent publication US7528140B2, “Substituted pyrrolo[3,2-d]pyrimidines as glycogen synthase kinase (GSK) inhibitors” (Teijin Limited, priority 2002, dated 2009)
